Reference: patent US20250026841A1
No constants are given. Whether binding was seen depends on the method and setting. Some entries that bind do so weakly or less than the wild type.

T1: peptides with the consensus motif KFPDE (SEQ ID NO:96)
T1 sequence (peptide): KFPDE


How the values were obtained:
[1] = biological target: T1, peptides with the consensus motif KFPDE (SEQ ID NO:96); assay: linear peptide microarray, spot intensities
[2] = biological target: T1, peptides with the consensus motif KFPDE (SEQ ID NO:96); assay: linear peptide microarray, antibody at 1 µg/ml

binding [1] | binding [2] | Binder
binds | binds | anti-p95HER2 antibody clone R4-11 (antibody, human IgG1, kappa, V domains shown) VH: QITLKESGPTLVKPTQTLTLTCTFSGFSLSTSGVGVGWIRQPPGKALEWLALIYWDDDKRYSPSLKSRLTITKDTSKNQVVLTMTNMDPVDTATYYCAHAHPFSGSYNFWGQGTLVTVSS VL: DIVMTQSPDSLAVSLGERATINCKSSQSVLFSSNNKDYLAWYQQRPGQPPKLLIHWASTREPGVPDRFSGSGSGTDFTLTISSLQAEDVAVYYCLQSYSNPPTFGQGTKVEIKR
binds | binds | anti-p95HER2 antibody clone R4-5 (antibody, human IgG1, kappa, V domains shown) VH: QITLKESGPALVKPTQTLTLTCTFSGFSLSTSGVGVGWIRQPPGKALEWLALIYWDDDKRYSPSLKSRLTITKDTSKNQVVLTMTNMDPVDTATYYCAHSRLPYNSHGYWGQGTTVTVSS VL: DIQMTQSPSSLSASVGDRVTITCQASQAIGNYLSWYQQKPGRAPKLLIYAASTLHSGVPSRFSGSGSGTDFTLTITSLQPDDFATYYCQQSYSVPVTFGLGTKLEIKR
binds | binds | anti-p95HER2 antibody clone R4-15 (antibody, human IgG1, V domains shown) VH: QITLKESGPTLVKPTQTLTLTCTFSGFSLSSGGVGVGWIRQPPGKALEWLALIYWDDDKRYSPSLKSRLTITKDTSKKQVVLTMTNMDPVDTATYYCAHLDYPENYFDQWGQGTLVTVSS VL: DIQMTQSPSSLSASVGDRVTFTCRASQSISTYLNWYQQKPGKAPKLLIYAASTLQSGVPSRFSGSGSGTDFTLAISSLQPEDFATYFCQQSYSFPTFGQGTRLEIKR
